From publication PMC10897393
The exact form of at least one protein or probe is not confirmed. The comparison behind a weaker result is the experiment's own reference, which may not be listed here. At least one verdict was read from the data and is not stated in words by the source.

By UniProt entry, the sequences of proteins in these tests, tags left out. Where a name states a change or a piece, a line headed by the entry shows the natural chain unless it says otherwise.
UniProt P49698: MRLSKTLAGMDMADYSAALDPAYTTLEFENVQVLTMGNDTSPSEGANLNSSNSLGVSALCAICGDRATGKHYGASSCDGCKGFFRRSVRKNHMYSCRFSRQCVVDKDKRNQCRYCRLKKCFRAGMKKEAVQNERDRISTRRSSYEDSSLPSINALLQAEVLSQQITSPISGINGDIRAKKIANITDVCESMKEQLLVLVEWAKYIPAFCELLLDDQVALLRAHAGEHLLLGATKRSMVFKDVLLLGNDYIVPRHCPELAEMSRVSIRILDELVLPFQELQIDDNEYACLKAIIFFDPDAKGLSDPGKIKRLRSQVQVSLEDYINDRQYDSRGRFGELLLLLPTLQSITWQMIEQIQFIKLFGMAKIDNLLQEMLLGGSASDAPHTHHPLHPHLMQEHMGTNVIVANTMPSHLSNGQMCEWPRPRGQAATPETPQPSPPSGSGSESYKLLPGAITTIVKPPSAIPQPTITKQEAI
UniProt Q06831: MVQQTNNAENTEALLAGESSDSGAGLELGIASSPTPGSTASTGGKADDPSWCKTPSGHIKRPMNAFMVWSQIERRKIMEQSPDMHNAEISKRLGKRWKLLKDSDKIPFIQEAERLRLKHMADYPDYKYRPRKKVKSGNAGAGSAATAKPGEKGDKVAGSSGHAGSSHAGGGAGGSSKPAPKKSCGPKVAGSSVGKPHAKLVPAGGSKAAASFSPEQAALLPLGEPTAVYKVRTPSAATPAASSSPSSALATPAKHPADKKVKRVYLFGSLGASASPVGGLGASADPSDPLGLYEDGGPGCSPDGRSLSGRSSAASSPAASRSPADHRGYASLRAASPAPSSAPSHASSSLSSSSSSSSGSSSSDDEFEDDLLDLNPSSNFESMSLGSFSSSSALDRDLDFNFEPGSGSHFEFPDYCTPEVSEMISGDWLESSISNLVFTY

Experiments:
[1] = molecular target: MYC-FLAG-HNF4A (Mus musculus) (UniProt P49698); experiment: EMSA; details: HNF4A bound specifically to the WT site; EMSA: 10 mM Tris-HCl pH 7.5, 1 mM MgCl2, 1 mM DTT, 50 mM KCl, 0.3 mg/ml BSA, 5% glycerol, RT 30 min; 5% native PAGE in 0.5x TBE; commercial protein; protein details: MYC-FLAG; label: Cy5 5'-end
FLAG-SOX4 (Mus musculus) = FLAG-SOX4 (Mus musculus) (UniProt Q06831); experiment: EMSA; details: marked specificity for the WT site; EMSA: 10 mM Tris-HCl pH 7.5, 1 mM MgCl2, 1 mM DTT, 50 mM KCl, 0.3 mg/ml BSA, 5% glycerol, RT 30 min; 5% native PAGE in 0.5x TBE; recombinant protein; protein details: N-terminal FLAG (MDYKDDDDK); label: Cy5 5'-end

Does “ATCTCTGAATCATAGAGAGGAGAAG (double strand) [Cyp2e1 distal enhancer mutant (scrambled HNF4A motif)]” bind [1]?
Result: binds more weakly

Does “ATCTCTGAATCATAGAGAGGAGAAG (double strand) [Cyp2e1 distal enhancer mutant (scrambled HNF4A motif)]” bind (FLAG-SOX4 (Mus musculus))?
Result: binds more weakly
